Reference: article PMC4438304
Results are given in words; binding and its absence hold for the method and conditions named. Binding seen in cells or lysates may run through a third protein. Some results given as binding are weak or reduced against the parent protein; the word gives no strength.

By UniProt entry, the sequences of proteins in these tests, tags left out.
UniProt Q01939: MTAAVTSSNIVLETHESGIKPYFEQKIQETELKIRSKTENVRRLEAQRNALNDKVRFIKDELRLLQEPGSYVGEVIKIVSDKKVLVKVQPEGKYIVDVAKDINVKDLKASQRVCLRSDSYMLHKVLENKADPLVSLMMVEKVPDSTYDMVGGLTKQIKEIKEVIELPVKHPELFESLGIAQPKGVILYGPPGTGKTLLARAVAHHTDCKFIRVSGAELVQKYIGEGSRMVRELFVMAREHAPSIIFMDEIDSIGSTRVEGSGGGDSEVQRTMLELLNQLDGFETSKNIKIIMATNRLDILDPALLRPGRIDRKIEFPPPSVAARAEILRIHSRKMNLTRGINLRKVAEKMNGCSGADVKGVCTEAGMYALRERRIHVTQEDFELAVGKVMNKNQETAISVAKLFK
UniProt P43588: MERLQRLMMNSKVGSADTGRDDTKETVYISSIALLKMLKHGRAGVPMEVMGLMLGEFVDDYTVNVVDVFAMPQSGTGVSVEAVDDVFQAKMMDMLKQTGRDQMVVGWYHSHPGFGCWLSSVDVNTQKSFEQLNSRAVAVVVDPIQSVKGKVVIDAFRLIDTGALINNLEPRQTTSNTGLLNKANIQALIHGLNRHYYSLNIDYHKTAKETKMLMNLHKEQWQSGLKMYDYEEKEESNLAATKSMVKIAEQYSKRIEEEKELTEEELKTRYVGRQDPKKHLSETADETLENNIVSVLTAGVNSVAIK

T1: Rpt1 (S. cerevisiae) (UniProt P33299)
T1 sequence: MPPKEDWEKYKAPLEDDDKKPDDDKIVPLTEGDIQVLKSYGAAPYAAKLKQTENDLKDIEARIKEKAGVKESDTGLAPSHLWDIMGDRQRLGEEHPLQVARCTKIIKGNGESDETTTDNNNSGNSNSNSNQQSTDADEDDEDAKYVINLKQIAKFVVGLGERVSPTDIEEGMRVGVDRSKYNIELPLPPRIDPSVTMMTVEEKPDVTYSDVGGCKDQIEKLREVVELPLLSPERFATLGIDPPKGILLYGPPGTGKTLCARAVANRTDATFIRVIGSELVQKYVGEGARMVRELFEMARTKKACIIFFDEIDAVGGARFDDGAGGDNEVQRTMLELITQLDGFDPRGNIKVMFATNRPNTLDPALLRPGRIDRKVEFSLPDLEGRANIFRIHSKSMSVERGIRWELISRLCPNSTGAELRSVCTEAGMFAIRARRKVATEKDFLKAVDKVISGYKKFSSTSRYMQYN

T2: Rpt3 (S. cerevisiae) (UniProt P33298)
T2 sequence: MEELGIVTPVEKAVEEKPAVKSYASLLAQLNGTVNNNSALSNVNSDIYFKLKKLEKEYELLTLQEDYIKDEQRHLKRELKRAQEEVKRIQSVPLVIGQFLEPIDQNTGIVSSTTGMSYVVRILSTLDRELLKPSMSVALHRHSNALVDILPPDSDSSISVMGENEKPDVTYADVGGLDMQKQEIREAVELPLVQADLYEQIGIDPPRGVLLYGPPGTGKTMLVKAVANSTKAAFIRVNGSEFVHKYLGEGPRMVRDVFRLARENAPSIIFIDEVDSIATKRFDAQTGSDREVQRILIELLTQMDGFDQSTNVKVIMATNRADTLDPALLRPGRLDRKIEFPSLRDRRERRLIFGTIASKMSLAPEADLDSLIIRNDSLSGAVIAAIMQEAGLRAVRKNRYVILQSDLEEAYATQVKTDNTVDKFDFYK


What was measured:
Rpt1 (S. cerevisiae) = molecular target: T1, Rpt1 (S. cerevisiae); assay: pull-down; each RPT ATPase purified and immobilized on CH-sepharose beads, incubated with full-length Rpn11 or Rpn11ΔC; BSA beads as mock; anti-Rpn11 immunoblot
Rpt6 (S. cerevisiae) = Rpt6 (S. cerevisiae) (UniProt Q01939); assay: as above
Rpt3 (S. cerevisiae) = molecular target: T2, Rpt3 (S. cerevisiae); assay: as above
[1] = molecular target: His6–Rpn11 (S. cerevisiae) (UniProt P43588); assay: pull-down + SEC; His6–Rpn11 co-expressed in E. coli with module 1 subunits (Rpn8 present); Ni–NTA, then S400 size exclusion (50 mM Tris pH 7.4, 5% glycerol, 100 mM NaCl); SDS/PAGE, bands confirmed by MS/MS

binding (Rpt1 (S. cerevisiae))	binding (Rpt6 (S. cerevisiae))	binding (Rpt3 (S. cerevisiae))	binding [1]	Molecule
binds	binds	binds		full-length Rpn11 (from UniProt P43588 1-306)
			binds	Rpn8 (protein, UniProt Q08723 1-338) MSLQHEKVTIAPLVLLSALDHYERTQTKENKRCVGVILGDANSSTIRVTNSFALPFEEDEKNSDVWFLDHNYIENMNEMCKKINAKEKLIGWYHSGPKLRASDLKINELFKKYTQNNPLLLIVDVKQQGVGLPTDAYVAIEQVKDDGTSTEKTFLHLPCTIEAEEAEEIGVEHLLRDVRDQAAGGLSIRLTNQLKSLKGLQSKLKDVVEYLDKVINKELPINHTILGKLQDVFNLLPNLGTPDDDEIDVENHDRINISNNLQKALTVKTNDELMVIYISNLVRSIIAFDDLIENKIQNKKIQEQRVKDKQSKVSDDSESESGDKEATAPLIQRKNKKN
